From publication PMC12859043
Results are given in words; binding and its absence hold for the method and conditions named. Binding seen in cells or lysates may run through a third protein. A yes stands for co-enrichment or nearness to the bait. Other partners may have been found. Where a sequence is shown, tags or fusion partners need not be part of it.

Key:
Experiment in all cases: proximity labelling; miniTurboID-V5-PRICKLE1-3 baits in stable HEK T-REx 293 TetON cells; doxycycline 1 μg/mL overnight, biotin 50 μM 6 h; streptavidin beads, DIA LC-MS/MS; control miniTurboID-V5 alone; five biological replicates
[1] = target: T1, miniTurboID-V5-PRICKLE2 (human) (UniProt Q7Z3G6)
T1 sequence: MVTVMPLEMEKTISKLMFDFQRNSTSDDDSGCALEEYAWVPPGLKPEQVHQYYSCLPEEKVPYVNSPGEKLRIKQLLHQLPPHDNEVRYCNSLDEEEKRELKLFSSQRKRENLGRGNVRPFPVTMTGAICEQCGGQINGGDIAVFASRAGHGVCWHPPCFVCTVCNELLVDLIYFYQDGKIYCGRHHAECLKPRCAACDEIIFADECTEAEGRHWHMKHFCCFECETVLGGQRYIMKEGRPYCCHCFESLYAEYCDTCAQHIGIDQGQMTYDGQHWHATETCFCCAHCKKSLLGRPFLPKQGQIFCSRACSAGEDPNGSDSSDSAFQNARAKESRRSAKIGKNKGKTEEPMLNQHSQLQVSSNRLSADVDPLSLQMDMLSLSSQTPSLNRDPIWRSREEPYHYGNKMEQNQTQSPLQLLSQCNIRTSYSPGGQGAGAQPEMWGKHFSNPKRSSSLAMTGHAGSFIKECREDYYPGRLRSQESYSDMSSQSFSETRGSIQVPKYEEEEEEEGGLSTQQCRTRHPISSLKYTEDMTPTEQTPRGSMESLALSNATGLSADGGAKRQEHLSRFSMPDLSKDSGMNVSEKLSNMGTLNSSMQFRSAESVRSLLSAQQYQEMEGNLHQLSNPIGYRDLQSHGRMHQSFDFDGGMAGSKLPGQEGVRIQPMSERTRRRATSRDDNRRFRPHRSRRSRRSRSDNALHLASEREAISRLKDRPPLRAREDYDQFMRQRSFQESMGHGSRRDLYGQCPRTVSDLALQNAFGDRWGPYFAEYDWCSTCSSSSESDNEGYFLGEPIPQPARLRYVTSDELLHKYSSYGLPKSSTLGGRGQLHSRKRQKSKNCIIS

[2] = target: T2, miniTurboID-V5-PRICKLE3 (human) (UniProt O43900)
T2 sequence: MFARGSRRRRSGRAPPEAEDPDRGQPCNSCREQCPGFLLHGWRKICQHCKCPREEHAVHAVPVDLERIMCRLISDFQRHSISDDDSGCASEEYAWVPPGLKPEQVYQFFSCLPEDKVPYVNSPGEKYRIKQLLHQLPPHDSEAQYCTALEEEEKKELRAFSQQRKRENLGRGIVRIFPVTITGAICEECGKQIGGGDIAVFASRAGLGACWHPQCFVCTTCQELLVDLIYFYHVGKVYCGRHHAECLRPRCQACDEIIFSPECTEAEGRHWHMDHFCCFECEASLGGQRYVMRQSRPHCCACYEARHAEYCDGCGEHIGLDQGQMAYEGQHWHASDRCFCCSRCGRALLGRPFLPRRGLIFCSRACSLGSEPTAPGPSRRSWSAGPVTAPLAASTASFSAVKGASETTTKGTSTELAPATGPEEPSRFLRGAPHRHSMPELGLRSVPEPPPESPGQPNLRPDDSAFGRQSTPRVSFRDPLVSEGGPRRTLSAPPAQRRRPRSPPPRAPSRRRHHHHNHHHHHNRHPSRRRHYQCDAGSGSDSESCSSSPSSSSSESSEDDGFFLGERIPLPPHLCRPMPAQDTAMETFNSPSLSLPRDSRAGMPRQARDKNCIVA

[3] = target: T3, miniTurboID-V5-PRICKLE1 (human) (UniProt Q96MT3)
T3 sequence: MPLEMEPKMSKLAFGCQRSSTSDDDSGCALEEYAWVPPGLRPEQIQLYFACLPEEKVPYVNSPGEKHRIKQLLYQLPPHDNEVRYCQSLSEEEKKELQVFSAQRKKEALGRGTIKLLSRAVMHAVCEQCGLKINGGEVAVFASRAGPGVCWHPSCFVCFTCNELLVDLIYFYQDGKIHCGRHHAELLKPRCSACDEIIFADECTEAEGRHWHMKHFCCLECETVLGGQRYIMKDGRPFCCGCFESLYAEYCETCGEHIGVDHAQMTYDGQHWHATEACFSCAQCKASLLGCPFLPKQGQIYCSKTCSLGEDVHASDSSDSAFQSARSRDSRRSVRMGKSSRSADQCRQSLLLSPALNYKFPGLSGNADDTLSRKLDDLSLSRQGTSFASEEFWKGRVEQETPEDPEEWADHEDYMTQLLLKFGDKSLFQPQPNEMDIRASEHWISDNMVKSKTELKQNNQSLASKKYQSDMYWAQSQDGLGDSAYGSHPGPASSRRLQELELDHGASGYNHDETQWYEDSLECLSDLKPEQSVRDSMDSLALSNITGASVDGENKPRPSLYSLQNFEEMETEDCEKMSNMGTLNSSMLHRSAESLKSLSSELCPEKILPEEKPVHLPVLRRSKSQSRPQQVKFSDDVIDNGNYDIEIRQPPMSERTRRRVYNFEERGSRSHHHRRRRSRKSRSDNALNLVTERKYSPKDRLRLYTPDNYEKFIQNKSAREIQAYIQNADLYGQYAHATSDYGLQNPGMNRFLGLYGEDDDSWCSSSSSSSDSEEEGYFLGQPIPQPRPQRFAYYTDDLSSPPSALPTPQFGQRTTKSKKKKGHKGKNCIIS

Measured: binding

B1: VANGL1 (endogenous) (protein, UniProt Q8TAA9 1-524)
chain: MDTESTYSGYSYYSSHSKKSHRQGERTRERHKSPRNKDGRGSEKSVTIQPPTGEPLLGNDSTRTEEVQDDNWGETTTAITGTSEHSISQEDIARISKDMEDSVGLDCKRYLGLTVASFLGLLVFLTPIAFILLPPILWRDELEPCGTICEGLFISMAFKLLILLIGTWALFFRKRRADMPRVFVFRALLLVLIFLFVVSYWLFYGVRILDSRDRNYQGIVQYAVSLVDALLFIHYLAIVLLELRQLQPMFTLQVVRSTDGESRFYSLGHLSIQRAALVVLENYYKDFTIYNPNLLTASKFRAAKHMAGLKVYNVDGPSNNATGQSRAMIAAAARRRDSSHNELYYEEAEHERRVKKRKARLVVAVEEAFIHIQRLQAEEQQKAPGEVMDPREAAQAIFPSMARALQKYLRITRQQNYHSMESILQHLAFCITNGMTPKAFLERYLSAGPTLQYDKDRWLSTQWRLVSDEAVTNGLRDGIVFVLKCLDFSLVVNVKKIPFIILSEEFIDPKSHKFVLRLQSETSV
binds: all assays above
